We go through one sequence from article PMC7405385.

Data set [1] relates to STAT2 WT + STAT1 + IRF9. Kind of data set: EMSA (supershift with STAT1, STAT2, IRF9 antibodies). To be noted: IFN-beta 1 h; Gelshift Chemiluminescent EMSA kit (Active Motif) per instructions; nuclear extracts; 500-fold molar excess unlabeled probe for competition; protein in an extract; label: 3' biotin. Background: Mobility shift assays separate free from complexed probe on a gel.

Data set [2] deals with STAT2 T404A + STAT1 + IRF9. The data set is described as follows: EMSA. The settings on record: IFN-beta 1 h, severely inhibited vs WT; Gelshift Chemiluminescent EMSA kit (Active Motif) per instructions; nuclear extracts; 500-fold molar excess unlabeled probe for competition; protein in an extract; label: 3' biotin.
For data set [3], the system named is STAT2 T404E + STAT1 + IRF9. The data set is described as follows: EMSA. To be noted: IFN-beta 1 h, greatly enhanced vs WT; Gelshift Chemiluminescent EMSA kit (Active Motif) per instructions; nuclear extracts; 500-fold molar excess unlabeled probe for competition; protein in an extract; label: 3' biotin.

For at least one entry, the source does not settle the construct or the ends of the probe. Results from cells or extracts need not show a direct contact. For part of these data: Weaker means in comparison with the reference protein, sequence or condition of that experiment.

As to “GGGAAAGGGAAACCGAAACTGA (double strand) [ISRE (ISG15) probe]”, the binding result in data set [1] is given as “binds”; in data set [2], “binds more weakly”; in data set [3], “binds”.
